Measurements reported in publication PMC3002268.
These are yes or no findings as the source states them, for the method shown. In cells and extracts the contact can be indirect. Binding calls can cover weak binding; strength is not graded here. For some of these results: Where a sequence is shown, tags or fusion partners need not be part of it.

T1: GST-Vls^309-367 (Drosophila) (UniProt Q9VIP8)
T1 sequence: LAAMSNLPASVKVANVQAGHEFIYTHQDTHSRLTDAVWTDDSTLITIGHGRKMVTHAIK

T2: Full length GST-Vls (367 amino acid residues) (Drosophila) (UniProt Q9VIP8)
T2 sequence: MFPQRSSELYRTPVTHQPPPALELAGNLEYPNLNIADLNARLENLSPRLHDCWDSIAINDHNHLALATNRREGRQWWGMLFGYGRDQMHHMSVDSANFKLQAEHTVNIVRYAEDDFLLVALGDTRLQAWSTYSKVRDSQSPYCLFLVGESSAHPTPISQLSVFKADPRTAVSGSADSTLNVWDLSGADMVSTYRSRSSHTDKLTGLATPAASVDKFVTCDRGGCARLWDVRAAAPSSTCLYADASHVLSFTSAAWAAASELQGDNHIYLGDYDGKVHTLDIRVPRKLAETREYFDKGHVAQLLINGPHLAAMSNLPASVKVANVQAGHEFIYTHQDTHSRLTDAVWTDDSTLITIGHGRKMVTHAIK


Experiments:
[1] = target: T1, GST-Vls^309-367 (Drosophila); assay: pull-down; GST-Vls^309-367 immobilised, in vitro translated S•Tag-Osk, synthetic Vls peptides added to the binding assay; only the target purified
[2] = target: T1, GST-Vls^309-367 (Drosophila); assay: pull-down; GST-fusion proteins immobilised on glutathione sepharose; in vitro translated S•Tag-Osk added; 20 mM HEPES pH 7.8, 10% glycerol, 300 mM NaCl, 0.1% sodium deoxycholate, 0.1% NP40, 0.1% Triton X-100; 3 hr at room temperature; bound S•Tag-Osk detected with S-protein alkaline phosphatase conjugate; only the target purified
[3] = target: T2, Full length GST-Vls (367 amino acid residues) (Drosophila); assay: as above
[4] = target: S•Tag-short Osk isoform (full size) (Drosophila); assay: pull-down; competition: synthetic Vls peptide added to the binding assay of in vitro translated S•Tag-Osk with GST-Vls^309-367; only the binder purified

binding [1]	binding [2]	binding [3]	binding [4]	Molecule
binds	binds	binds		S•Tag-short Osk isoform (full size) (Drosophila)
			binds	AAMSNLPASVKVANVQAGHEFIYTHQDTHSR (peptide, UniProt Q9VIP8 310-340) [synthetic peptide made of residues 310 to 340 of Vls]
